Results are given in words; binding and its absence hold for the method and conditions named. Binding seen in cells or lysates may run through a third protein. Some binding calls cover weakened binding; strength is not graded here.
Molecular target: MYCN (human (endogenous in SK-N-BE(2))) (UniProt P04198)
Test: co-IP; IP of endogenous MYCN (mouse anti-MYCN) from SK-N-BE(2) lysate, pre-treated or not with 250 U/ml Benzonase; IP buffer 20 mM Tris-HCl pH 7.5, 150 mM NaCl, 2 mM EDTA, 1% NP40, 10% glycerol; overnight at 4 °C; western blot for DDX17 and DDX5

Sequences of proteins named here, by UniProt entry; tags and fusion partners are left off.
UniProt P04198: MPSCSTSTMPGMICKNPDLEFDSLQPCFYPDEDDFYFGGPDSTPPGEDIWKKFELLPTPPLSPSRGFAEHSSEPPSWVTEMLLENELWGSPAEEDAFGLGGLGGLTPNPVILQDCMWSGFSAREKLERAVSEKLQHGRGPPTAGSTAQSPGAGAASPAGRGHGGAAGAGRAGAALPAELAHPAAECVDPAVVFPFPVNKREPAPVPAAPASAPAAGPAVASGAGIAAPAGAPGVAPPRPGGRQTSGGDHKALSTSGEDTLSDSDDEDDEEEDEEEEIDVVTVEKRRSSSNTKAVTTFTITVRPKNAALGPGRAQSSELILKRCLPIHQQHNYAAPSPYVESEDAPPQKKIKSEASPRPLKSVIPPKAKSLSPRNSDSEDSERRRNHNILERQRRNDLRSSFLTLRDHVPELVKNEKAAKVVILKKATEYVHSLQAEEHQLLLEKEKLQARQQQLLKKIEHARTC
UniProt Q92841: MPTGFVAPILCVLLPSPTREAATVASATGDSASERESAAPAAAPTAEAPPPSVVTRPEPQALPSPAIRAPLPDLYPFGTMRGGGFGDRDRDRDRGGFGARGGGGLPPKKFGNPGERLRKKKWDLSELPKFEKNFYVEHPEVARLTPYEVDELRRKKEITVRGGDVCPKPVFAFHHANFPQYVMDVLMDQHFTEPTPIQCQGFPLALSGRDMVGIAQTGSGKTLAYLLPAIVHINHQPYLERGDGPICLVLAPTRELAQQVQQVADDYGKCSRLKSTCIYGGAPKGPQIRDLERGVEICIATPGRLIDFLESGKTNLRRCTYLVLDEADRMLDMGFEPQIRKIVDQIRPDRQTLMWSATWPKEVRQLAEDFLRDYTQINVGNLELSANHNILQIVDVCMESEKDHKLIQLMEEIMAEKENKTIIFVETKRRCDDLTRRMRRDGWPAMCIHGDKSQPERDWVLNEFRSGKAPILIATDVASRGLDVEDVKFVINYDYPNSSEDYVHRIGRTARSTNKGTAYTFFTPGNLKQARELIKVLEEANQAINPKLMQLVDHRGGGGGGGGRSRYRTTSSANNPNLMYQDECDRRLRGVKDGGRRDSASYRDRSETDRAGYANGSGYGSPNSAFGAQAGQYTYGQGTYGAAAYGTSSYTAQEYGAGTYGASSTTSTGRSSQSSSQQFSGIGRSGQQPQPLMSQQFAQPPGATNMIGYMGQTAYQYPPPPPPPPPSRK

“DEAD box helicase DDX17 (from UniProt Q92841 1-729)” was tested, and the binding was “binds”.

Reference: publication PMC13429570
